Measured values reported in publication PMC7615239.
These are yes or no findings as the source states them, for the method shown. In cells and extracts the contact can be indirect. Some entries that bind do so weakly or less than the wild type. Where a sequence is shown, tags or fusion partners need not be part of it.

By UniProt entry, the sequences of proteins in these tests, tags left out.
UniProt Q9FIE3: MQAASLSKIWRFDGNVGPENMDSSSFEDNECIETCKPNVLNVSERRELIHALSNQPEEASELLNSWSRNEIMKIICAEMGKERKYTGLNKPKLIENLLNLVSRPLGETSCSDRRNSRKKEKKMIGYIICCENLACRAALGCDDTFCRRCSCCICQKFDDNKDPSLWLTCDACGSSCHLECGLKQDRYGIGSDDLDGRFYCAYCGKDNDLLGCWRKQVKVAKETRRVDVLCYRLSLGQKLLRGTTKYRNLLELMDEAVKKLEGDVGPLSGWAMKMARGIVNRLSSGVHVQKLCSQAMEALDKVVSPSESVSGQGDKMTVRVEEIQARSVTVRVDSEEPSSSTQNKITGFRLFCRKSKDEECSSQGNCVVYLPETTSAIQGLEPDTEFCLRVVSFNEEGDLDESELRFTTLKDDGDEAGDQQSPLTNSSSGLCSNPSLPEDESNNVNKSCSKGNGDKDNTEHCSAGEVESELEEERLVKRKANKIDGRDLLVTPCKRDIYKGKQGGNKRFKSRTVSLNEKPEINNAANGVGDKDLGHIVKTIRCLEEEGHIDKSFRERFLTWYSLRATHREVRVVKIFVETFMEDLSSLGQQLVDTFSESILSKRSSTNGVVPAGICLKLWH
UniProt O22467: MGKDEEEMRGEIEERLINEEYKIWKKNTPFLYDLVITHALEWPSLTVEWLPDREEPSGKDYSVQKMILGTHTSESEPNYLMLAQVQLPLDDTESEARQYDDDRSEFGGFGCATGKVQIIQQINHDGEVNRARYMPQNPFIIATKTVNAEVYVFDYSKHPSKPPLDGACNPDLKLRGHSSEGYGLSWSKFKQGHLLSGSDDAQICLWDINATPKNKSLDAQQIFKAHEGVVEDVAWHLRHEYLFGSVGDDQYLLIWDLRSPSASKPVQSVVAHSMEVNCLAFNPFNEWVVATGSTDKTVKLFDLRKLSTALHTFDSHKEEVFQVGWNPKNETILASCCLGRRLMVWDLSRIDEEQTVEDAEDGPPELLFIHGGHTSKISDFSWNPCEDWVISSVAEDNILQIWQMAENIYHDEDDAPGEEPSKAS

B1: HA-tagged SWN (protein, UniProt Q9ZSM8 1-856)
chain: MVTDDSNSSGRIKSHVDDDDDGEEEEDRLEGLENRLSELKRKIQGERVRSIKEKFEANRKKVDAHVSPFSSAASSRATAEDNGNSNMLSSRMRMPLCKLNGFSHGVGDRDYVPTKDVISASVKLPIAERIPPYTTWIFLDRNQRMAEDQSVVGRRQIYYEQHGGETLICSDSEEEPEPEEEKREFSEGEDSIIWLIGQEYGMGEEVQDALCQLLSVDASDILERYNELKLKDKQNTEEFSNSGFKLGISLEKGLGAALDSFDNLFCRRCLVFDCRLHGCSQPLISASEKQPYWSDYEGDRKPCSKHCYLQLKAVREVPETCSNFASKAEEKASEEECSKAVSSDVPHAAASGVSLQVEKTDIGIKNVDSSSGVEQEHGIRGKREVPILKDSNDLPNLSNKKQKTAASDTKMSFVNSVPSLDQALDSTKGDQGGTTDNKVNRDSEADAKEVGEPIPDNSVHDGGSSICQPHHGSGNGAIIIAEMSETSRPSTEWNPIEKDLYLKGVEIFGRNSCLIARNLLSGLKTCLDVSNYMRENEVSVFRRSSTPNLLLDDGRTDPGNDNDEVPPRTRLFRRKGKTRKLKYSTKSAGHPSVWKRIAGGKNQSCKQYTPCGCLSMCGKDCPCLTNETCCEKYCGCSKSCKNRFRGCHCAKSQCRSRQCPCFAAGRECDPDVCRNCWVSCGDGSLGEAPRRGEGQCGNMRLLLRQQQRILLGKSDVAGWGAFLKNSVSKNEYLGEYTGELISHHEADKRGKIYDRANSSFLFDLNDQYVLDAQRKGDKLKFANHSAKPNCYAKVMFVAGDHRVGIFANERIEASEELFYDYRYGPDQAPVWARKPEGSKKDDSAITHRRARKHQSH

Legend:
[1] = target: T1, GFP-VAL1 (Arabidopsis) (UniProt Q8W4L5); experiment: co-IP; GFP-VAL1 (wt or internal deletions) coexpressed with FLAG-dsRed-tagged VEL proteins (wt or mutant) in HEK293T; GFP-trap; anti-FLAG blot
T1 sequence: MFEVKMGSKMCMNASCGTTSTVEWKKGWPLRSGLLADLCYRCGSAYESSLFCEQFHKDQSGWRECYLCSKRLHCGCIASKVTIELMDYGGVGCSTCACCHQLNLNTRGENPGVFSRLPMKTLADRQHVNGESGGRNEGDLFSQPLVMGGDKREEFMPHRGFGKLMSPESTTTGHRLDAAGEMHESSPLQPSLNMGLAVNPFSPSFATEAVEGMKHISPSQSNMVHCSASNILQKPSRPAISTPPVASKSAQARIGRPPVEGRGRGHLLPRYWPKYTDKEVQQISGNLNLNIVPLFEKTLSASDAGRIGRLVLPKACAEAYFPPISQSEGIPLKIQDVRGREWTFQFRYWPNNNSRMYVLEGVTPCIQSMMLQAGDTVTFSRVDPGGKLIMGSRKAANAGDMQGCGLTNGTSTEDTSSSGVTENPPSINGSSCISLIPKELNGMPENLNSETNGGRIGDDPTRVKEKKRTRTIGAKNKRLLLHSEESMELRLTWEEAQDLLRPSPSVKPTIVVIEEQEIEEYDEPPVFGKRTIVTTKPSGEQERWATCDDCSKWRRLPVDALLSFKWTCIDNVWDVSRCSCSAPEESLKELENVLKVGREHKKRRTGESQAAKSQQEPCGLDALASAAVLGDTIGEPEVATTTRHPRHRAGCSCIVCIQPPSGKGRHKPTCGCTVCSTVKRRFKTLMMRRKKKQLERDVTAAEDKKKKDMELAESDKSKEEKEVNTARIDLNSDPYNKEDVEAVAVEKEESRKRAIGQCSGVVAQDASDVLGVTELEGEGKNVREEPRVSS

[2] = target: T2, GFP-VRN5 (Arabidopsis thaliana) (UniProt Q9LHF5); experiment: co-IP; GFP-VRN5 coexpressed with the HA-tagged catalytic or regulatory module of PRC2 (VRN2 split into N-lobe and C-lobe) in HEK293T; GFP-trap; anti-HA blot
T2 sequence: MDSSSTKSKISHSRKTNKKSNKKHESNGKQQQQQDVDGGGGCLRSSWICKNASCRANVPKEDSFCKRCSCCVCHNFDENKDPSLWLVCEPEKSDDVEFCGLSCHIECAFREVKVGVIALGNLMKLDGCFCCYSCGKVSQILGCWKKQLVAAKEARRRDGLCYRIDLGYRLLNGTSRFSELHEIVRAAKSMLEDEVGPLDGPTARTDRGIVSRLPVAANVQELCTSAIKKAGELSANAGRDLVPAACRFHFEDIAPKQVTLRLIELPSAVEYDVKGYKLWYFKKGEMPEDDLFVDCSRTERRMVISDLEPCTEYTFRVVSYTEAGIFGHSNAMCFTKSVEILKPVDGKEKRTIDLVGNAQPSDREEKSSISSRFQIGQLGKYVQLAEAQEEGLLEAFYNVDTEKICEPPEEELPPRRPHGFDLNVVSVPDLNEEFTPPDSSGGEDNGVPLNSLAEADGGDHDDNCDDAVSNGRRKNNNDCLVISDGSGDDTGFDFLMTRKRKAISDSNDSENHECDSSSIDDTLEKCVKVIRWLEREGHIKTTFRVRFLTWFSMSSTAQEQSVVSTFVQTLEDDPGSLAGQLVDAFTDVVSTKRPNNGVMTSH

[3] = target: T2, GFP-VRN5 (Arabidopsis thaliana); experiment: co-IP; GFP-tagged VEL protein (wt, mutant or chimera) coexpressed with all four HA-tagged PRC2 subunits (VRN2, SWN, FIE, MSI1) in HEK293T; GFP-trap 90 min at 4°C; lysis buffer 20 mM Tris pH 7.4, 200 mM NaCl, 10% glycerol, 0.2% Triton X-100; anti-HA blot
[4] = target: T3, GFP-VEL1 (Arabidopsis thaliana) (UniProt Q9SUM4); experiment: as above
T3 sequence: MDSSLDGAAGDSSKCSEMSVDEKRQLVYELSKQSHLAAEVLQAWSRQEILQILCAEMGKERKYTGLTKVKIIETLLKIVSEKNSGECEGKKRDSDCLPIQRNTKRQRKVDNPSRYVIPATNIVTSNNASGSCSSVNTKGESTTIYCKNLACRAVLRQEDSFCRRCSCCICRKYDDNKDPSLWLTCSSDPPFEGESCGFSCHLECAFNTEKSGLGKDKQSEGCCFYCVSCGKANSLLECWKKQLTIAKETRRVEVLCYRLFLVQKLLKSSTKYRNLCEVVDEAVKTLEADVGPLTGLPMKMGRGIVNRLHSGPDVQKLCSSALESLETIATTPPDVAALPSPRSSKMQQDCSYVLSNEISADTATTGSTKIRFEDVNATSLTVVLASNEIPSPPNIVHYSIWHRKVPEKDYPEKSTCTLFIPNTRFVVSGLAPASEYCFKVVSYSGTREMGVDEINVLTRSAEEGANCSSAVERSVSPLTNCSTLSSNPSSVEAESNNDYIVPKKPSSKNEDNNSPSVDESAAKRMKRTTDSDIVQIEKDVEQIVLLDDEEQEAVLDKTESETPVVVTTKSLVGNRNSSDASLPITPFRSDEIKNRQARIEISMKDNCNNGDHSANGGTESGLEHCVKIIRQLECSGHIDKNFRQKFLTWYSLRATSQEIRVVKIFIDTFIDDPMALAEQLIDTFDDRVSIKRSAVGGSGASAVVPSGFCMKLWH

[5] = target: VIN3-GFP (Arabidopsis thaliana) (UniProt Q9FIE3); experiment: as above
[6] = target: T4, GFP-tagged VRN2 (Arabidopsis) (UniProt Q8W5B1); experiment: co-IP; GFP-tagged VRN2 coexpressed with SWN, MSI1 and FIE, without or with VRN5, in HEK293T (Supplemental Fig. S1F,G)
T4 sequence: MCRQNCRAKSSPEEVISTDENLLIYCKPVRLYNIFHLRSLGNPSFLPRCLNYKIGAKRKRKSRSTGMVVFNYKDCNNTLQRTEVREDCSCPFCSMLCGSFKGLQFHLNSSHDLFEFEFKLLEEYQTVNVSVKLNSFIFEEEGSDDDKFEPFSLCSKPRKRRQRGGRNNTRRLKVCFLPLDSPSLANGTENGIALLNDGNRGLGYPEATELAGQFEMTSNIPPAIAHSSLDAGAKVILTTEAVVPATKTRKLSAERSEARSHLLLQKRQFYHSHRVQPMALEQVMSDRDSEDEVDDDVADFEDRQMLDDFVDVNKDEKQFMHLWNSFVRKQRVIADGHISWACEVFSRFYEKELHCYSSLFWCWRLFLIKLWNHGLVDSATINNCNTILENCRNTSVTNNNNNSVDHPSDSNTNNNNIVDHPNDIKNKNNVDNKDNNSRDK

[7] = target: T2, GFP-VRN5 (Arabidopsis thaliana); experiment: co-IP; GFP-VRN5 coexpressed with all but one of the four HA-tagged PRC2 subunits in HEK293T; GFP-trap; anti-HA blot

Row | Molecule | binding [1] | binding [2] | binding [3] | binding [4] | binding [5] | binding [6] | binding [7]
1 | FLAG-dsRed-VIN3 (from UniProt Q9FIE3 1-620) | binds |  |  |  |  |  | 
2 | HA-tagged MSI1 (from UniProt O22467 1-424) |  | binds | binds | binds | binds weakly | binds | 
3 | B1 |  |  | binds | binds weakly | binds weakly | binds | binds
